Laboratory results: PubChem BioAssay AID1159578 (Peter MacCallum Cancer Centre, 2015)
This is one part, drawn at random, of about 18,000 reagents tested. Over the whole deposit, about 1,030 (5.7%) got an active call. 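Inactive calls also include pools with fewer than 3300 nuclei, whose migration was not assessed.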 The raw values are shown without normalisation. Unmarked entries are inactive. Reagent sequences are not shown.

Aim: 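siRNA pools altering how lymphatic endothelial cells close a scratch wound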 (primary screen)
Cell system: human lymphatic endothelial cells
Reagent: siRNA pool against human genes, 40 nM
Timing: 48 h after transfection
Measurement: 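High-content imaging of dye-stained cells in a scratch assay measures filled wound area and nuclei per well; duplicate means given as ratio to mock and robust z-score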
Reading the numbers: migration robust z-score: higher = faster migration into the scratch; migration relative to mock: higher = more scratch area covered than mock; nuclei per well: higher = more cells in the well
Call rule: 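Pools averaging fewer than 3300 nuclei are never called; remaining pools count as changed when migration robust z lies outside -2 to 2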
Calls: active = migration changed; inactive = no migration change, or too few cells

| gene | migration robust z-score | migration class with cell-count check | migration relative to mock | nuclei per well, duplicate mean |
| --- | --- | --- | --- | --- |
| DEFB114 (GeneID 245928) | 0.05 | migration z between -2 and 2; enough cells | 0.9 | 4062 |
| GRAMD2B (GeneID 65983) | 0.73 | migration z between -2 and 2; enough cells | 1.07 | 5523 |
| PPP3R2 (GeneID 5535) | 0.16 | migration z between -2 and 2; enough cells | 0.84 | 5200 |
| TOPORS (GeneID 10210) | 1.22 | migration z between -2 and 2; enough cells | 1.04 | 5391 |
| SOCS5 (GeneID 9655) | -1.14 | migration z between -2 and 2; enough cells | 0.58 | 5596 |
| DHH (GeneID 50846) | -0.6 | migration z between -2 and 2; enough cells | 0.69 | 5022 |
| BRD9 (GeneID 65980) | 0.3 | migration z between -2 and 2; enough cells | 0.96 | 5538 |
| IGFALS (GeneID 3483) | -0.9 | migration z between -2 and 2; enough cells | 0.65 | 5904 |
| DDX17 (GeneID 10521) | 0.98 | migration z between -2 and 2; enough cells | 1 | 5676 |
| RAP1GAP (GeneID 5909) | -1.29 | migration z between -2 and 2; enough cells | 0.55 | 5168 |
| CASP9 (GeneID 842) | 1.15 | migration z between -2 and 2; enough cells | 1.02 | 5287 |
| PCDHGC4 (GeneID 56098) | -0.66 | migration z between -2 and 2; enough cells | 0.72 | 6632 |
| SLC35B1 (GeneID 10237) | -0.15 | migration z between -2 and 2; enough cells | 0.85 | 6092 |
| MYO5C (GeneID 55930) | 0.02 | migration z between -2 and 2; enough cells | 0.81 | 6436 |
| ITGB1BP1 (GeneID 9270) | 0.1 | migration z between -2 and 2; enough cells | 0.91 | 6676 |
| ATG101 (GeneID 60673) | 1.72 | migration z between -2 and 2; enough cells | 1.33 | 5006 |
| TIAM2 (GeneID 26230) | -0.18 | migration z between -2 and 2; enough cells | 0.77 | 5178 |
| HSPA4L (GeneID 22824) | 0.31 | migration z between -2 and 2; enough cells | 0.86 | 5944 |
| ASB16-AS1 (GeneID 339201) | -0.72 | migration z between -2 and 2; enough cells | 0.7 | 6168 |
| EEF1A2 (GeneID 1917) | -0.21 | migration z between -2 and 2; enough cells | 0.76 | 4976 |
| KIR2DL5A (GeneID 57292) | 0.3 | migration z between -2 and 2; enough cells | 0.97 | 5520 |
| KCNJ5 (GeneID 3762) | -0.08 | migration z between -2 and 2; enough cells | 0.79 | 5642 |
| FAM209B (GeneID 388799) | -2.36 (active) | migration z below -2; enough cells | 0.26 | 4464 |
| LYPLA1 (GeneID 10434) | 0.7 | migration z between -2 and 2; enough cells | 0.94 | 4867 |
| TLN2 (GeneID 83660) | -0.07 | migration z between -2 and 2; enough cells | 0.87 | 6696 |
| TEKT4 (GeneID 150483) | -0.56 | migration z between -2 and 2; enough cells | 0.74 | 5295 |
| EEF1AKMT3 (GeneID 25895) | 1.99 | migration z between -2 and 2; enough cells | 1.4 | 5074 |
| CADM3 (GeneID 57863) | 0.51 | migration z between -2 and 2; enough cells | 1.02 | 5276 |
| TEX56P (GeneID 404220) | 0.81 | migration z between -2 and 2; enough cells | 1.1 | 4695 |
| LYSMD3 (GeneID 116068) | -2.9 | under 3300 nuclei; migration not judged | 0.14 | 2936 |
| PACSIN2 (GeneID 11252) | 0.36 | migration z between -2 and 2; enough cells | 0.98 | 6060 |
| DRG1 (GeneID 4733) | 1.25 | migration z between -2 and 2; enough cells | 1.04 | 6133 |
| GLT1D1 (GeneID 144423) | -0.34 | migration z between -2 and 2; enough cells | 0.74 | 4841 |
| MAGEA3 (GeneID 4102) | 0.26 | migration z between -2 and 2; enough cells | 0.95 | 6839 |
| IMPG2 (GeneID 50939) | -0.71 | migration z between -2 and 2; enough cells | 0.7 | 4905 |
| PAXX (GeneID 286257) | 1.2 | migration z between -2 and 2; enough cells | 1.19 | 7226 |
| CCDC30 (GeneID 728621) | 0.09 | migration z between -2 and 2; enough cells | 0.9 | 5482 |
| CACNA1D (GeneID 776) | -1.03 | migration z between -2 and 2; enough cells | 0.6 | 5846 |
| ATP6V1G3 (GeneID 127124) | 0.34 | migration z between -2 and 2; enough cells | 0.87 | 5209 |
| RAB39A (GeneID 54734) | 0.4 | migration z between -2 and 2; enough cells | 0.98 | 5710 |
| BUD23 (GeneID 114049) | -0.6 | migration z between -2 and 2; enough cells | 0.69 | 4778 |
| CATSPER4 (GeneID 378807) | 0.54 | migration z between -2 and 2; enough cells | 0.91 | 4340 |
| ZNF346 (GeneID 23567) | 1.14 | migration z between -2 and 2; enough cells | 1.18 | 6058 |
| HSD3B7 (GeneID 80270) | -0.08 | migration z between -2 and 2; enough cells | 0.79 | 5216 |
| UQCR11 (GeneID 10975) | 1.48 | migration z between -2 and 2; enough cells | 1.09 | 6502 |
| PGAM4 (GeneID 441531) | 0.29 | migration z between -2 and 2; enough cells | 0.86 | 5798 |
| PEG10 (GeneID 23089) | 1.08 | migration z between -2 and 2; enough cells | 1.17 | 6357 |
| NUF2 (GeneID 83540) | -2.34 (active) | migration z below -2; enough cells | 0.29 | 5180 |
| PCDHGC5 (GeneID 56097) | -0.13 | migration z between -2 and 2; enough cells | 0.85 | 4944 |
| IKBKE (GeneID 9641) | -2.77 | under 3300 nuclei; migration not judged | 0.27 | 2856 |
| ABCA4 (GeneID 24) | -0.72 | migration z between -2 and 2; enough cells | 0.66 | 7116 |
| SAT2 (GeneID 112483) | 1.92 | migration z between -2 and 2; enough cells | 1.18 | 6949 |
| ASNSD1 (GeneID 54529) | -0.78 | migration z between -2 and 2; enough cells | 0.66 | 5754 |
| FANCL (GeneID 55120) | 1.16 | migration z between -2 and 2; enough cells | 1.19 | 6828 |
| ZDHHC3 (GeneID 51304) | 0.88 | migration z between -2 and 2; enough cells | 0.98 | 5674 |
| PTGER4 (GeneID 5734) | 0.88 | migration z between -2 and 2; enough cells | 0.98 | 5138 |
| RP9 (GeneID 6100) | -1.22 | migration z between -2 and 2; enough cells | 0.57 | 5488 |

Targets above whose target name starts with G or g:
| gene | migration robust z-score | migration class with cell-count check | migration relative to mock | nuclei per well, duplicate mean |
| --- | --- | --- | --- | --- |
| GRAMD2B (GeneID 65983) | 0.73 | migration z between -2 and 2; enough cells | 1.07 | 5523 |
| GLT1D1 (GeneID 144423) | -0.34 | migration z between -2 and 2; enough cells | 0.74 | 4841 |
